From PubChem BioAssay AID1688 (National Center for Advancing Translational Sciences (NCATS), 2009)
Out of some 220,000 compounds screened, about 2,400 (1.1%) were called active. The inconclusive results got no clear call from the source; some entries with a clear call stand among them for comparison. The call rests on the fitted dose curve; in most records, active means well fitted inhibition curve with a large enough effect; inconclusive means small, poorly fitted or top-dose-only effect, or effect the other way; inactive means no such curve, though single readings can be large or run the other way. Potencies of inconclusive entries are doubtful fits and often do not repeat.

test: qHTS Multiplex Assay to Identify Dual Action Probes in a Cell Model of Huntington: Aggregate Formation (GFP); conditions: PC12 HttQ103-GFP aggregates, Acumen cytometry, 40 h; activity change, negative = inhibition: at 46.1 µM (top of the series) unless noted; further: nearly all actives have a fitted effect of over 60% in size
Summary of the method: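 Aggregate formation scored by laser-scanning cytometer (488 excitation, 500–530 emission) in lysed PC12 cells expressing Q103-GFP after 100 nM tebufenozide induction; library tested in dose series, with ATPLite reagent added in the multiplex.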
On the % scale 0 is the no-effect control and ±100 the full control effect; potency means the concentration at half of the fitted maximal effect.

For `Cc1cccn2c(=O)c(/C=C(\C#N)S(=O)(=O)c3ccccc3)c(N3CCN(C)CC3)nc12`, which “activity change, negative = inhibition” value is on record?
The value was inactive: -12.9%.

Which Potency does the source give for `CC1CCN(C(=S)c2ccc(N(C)C)cc2)CC1` here?
Its Potency is inconclusive: 31.6 µM [inhibitor, single point].

For `CN(C)/C=N/c1nc2nccc(-c3ccccc3)n2n1`, which Potency is on record?
The Potency was inconclusive: 3.16 µM [inhibitor, single point].

With `CNc1ccc(NC(C)=O)cc1[N+](=O)[O-]` as the molecule, how does the Potency read?
The Potency was inconclusive: 7.94 µM [activator, partial curve].

With `COc1ccc(C(=O)NCCc2nnc3ccc(SCC(=O)Nc4cc(C)on4)nn23)cc1` as the molecule, how does the “activity change, negative = inhibition” value read?
The value was inactive: 2.81%.

Which “activity change, negative = inhibition” value does the source give for `CCCCN(C)CCCNC(=O)/C=C1\Sc2ccccc2NC1=O` here?
The value was inactive: 3.34%.

For `CC1(C)CC(=O)C2=C(C1)NC1=C(C(=O)c3ccccc31)C2c1cc([N+](=O)[O-])ccc1O` (configuration not stated), which activity change, negative = inhibition is on record?
Its activity change, negative = inhibition is inactive: -10.4% [at 9.22 µM].

With `c1nc(N2CCCCCC2)c2[nH]cnc2n1` as the molecule, how does the Potency read?
The Potency was inconclusive: 17.8 µM [inhibitor, single point].

Which Potency does the source give for `COCCNC(=O)c1c(CSc2ccccc2)noc1C(=O)NCc1ccccc1` here?
The Potency was inconclusive: 0.891 µM [inhibitor, single point].

For `Cc1ccnc(NC(=O)CCCOc2cc(=O)n(C)c3ccccc23)c1`, which Potency is on record?
Its Potency is inconclusive: 1.78 µM [activator, partial curve].

Which Potency does the source give for `CN(C)CCCN(Cc1ccccc1)C(=S)Nc1cccc(C(F)(F)F)c1` here?
The Potency was active: 0.0006 µM.

Which “activity change, negative = inhibition” value does the source give for `N#Cc1ccc(C(=O)NCC(c2ccco2)N2CCCCC2)cc1` (configuration not stated) here?
The value was inactive: -1.04%.

Which Potency does the source give for `CCOC(=O)N1CCN(C(c2ccc(C(C)C)cc2)c2sc3nc(C)nn3c2O)CC1` (configuration not stated) here?
Its Potency is inconclusive: 0.562 µM [activator, full curve, poor fit].

For `CCCc1ccc(Oc2cn[nH]c2-c2ccc(O)c(C)c2O)cc1`, which Potency is on record?
The Potency was inconclusive: 15.8 µM [inhibitor, single point].

With `O=C1C(C=Nc2ccccc2O)=C(O)c2ccccc21` as the molecule, how does the Potency read?
Its Potency is inconclusive: 11.2 µM [activator, partial curve].

For `N#CCC(=N)N1CCN(c2ccc(Cl)cc2)CC1`, which “activity change, negative = inhibition” value is on record?
Its value is inactive: -6.93%.

Which “activity change, negative = inhibition” value does the source give for `COc1ccc2[nH]cc(CCn3ccc(=O)c(C)c3C)c2c1` here?
The value was inactive: 8.41%.

With `COc1cc(CC(=O)Nc2ccc(S(=O)(=O)NC3=NCCCCC3)cc2)cc(OC)c1OC` as the molecule, how does the “activity change, negative = inhibition” value read?
The value was inactive: 14%.

Which Potency does the source give for `Cc1ccc(-n2c(O)c(C=NCc3ccccn3)c3ccccc3c2=O)cc1C` here?
Its Potency is inconclusive: 14.1 µM [inhibitor, partial curve].

Which activity change, negative = inhibition does the source give for `CCOc1ccccc1Nc1nc(-c2sc(C)nc2C)cs1` here?
The activity change, negative = inhibition was inactive: 10.2% [at 9.22 µM].

With `CCOC(=O)CSc1nc2ccc(Nc3nc(N4CCOCC4)nc(N4CCOCC4)n3)cc2s1` as the molecule, how does the “activity change, negative = inhibition” value read?
The value was inactive: 14%.

For `COc1cc2c(cc1NC(=O)CCCN1C(=O)CCC1=O)oc1ccccc12`, which Potency is on record?
The Potency was inconclusive: 1.26 µM [activator, single point].

With `Cc1cc(C(=O)NCc2cccs2)cs1` as the molecule, how does the Potency read?
Its Potency is inconclusive: 0.891 µM [activator, single point].

For `N#Cc1c(-c2ccc(Br)cc2)cc(-c2cccnc2)nc1N`, which “activity change, negative = inhibition” value is on record?
The value was inactive: -8.3%.

For `O=C(CCc1ccccc1O)N/N=C/c1ccc(Sc2cccc3cccnc23)o1`, which “activity change, negative = inhibition” value is on record?
The value was inactive: -30.7%.

With `COc1ccc(/C=N/NC(=O)c2ccc3ccccc3c2)cc1OS(=O)(=O)c1ccc(NC(C)=O)cc1` as the molecule, how does the “activity change, negative = inhibition” value read?
The value was inactive: -3.82%.

With `O=C(O)C1CC(=O)N(c2ccc(OCc3c(F)cccc3Cl)cc2)C1` (configuration not stated) as the molecule, how does the “activity change, negative = inhibition” value read?
Its value is inactive: -7.61%.

For `CCOC(=O)c1nnn(-c2nonc2-n2cccc2)c1CN1CCCCC1`, which “activity change, negative = inhibition” value is on record?
The value was inactive: 17.6%.

With `COc1ccc(N2C(=O)CC(NC3CC3)C2=O)cc1` (configuration not stated) as the molecule, how does the “activity change, negative = inhibition” value read?
Its value is inactive: 2.56%.

For `Cc1ccc(S(=O)(=O)n2ccc(-c3ccc(OCc4c(F)cccc4Cl)cc3)n2)cc1`, which “activity change, negative = inhibition” value is on record?
Its value is inactive: -32.8%.

Which Potency does the source give for `Cc1ccc2[nH]c(=O)c(CN(CC3CCCO3)C(=S)NCc3ccco3)cc2c1` (configuration not stated) here?
The Potency was inconclusive: 0.501 µM [activator, partial curve, poor fit].

For `Cn1cccc1/C=N/n1c(-c2ccccc2)n[nH]c1=S`, which “activity change, negative = inhibition” value is on record?
The value was inactive: -5.39%.

For `COc1ccccc1/C=C\C=N\n1c(C2CCCCC2)n[nH]c1=S`, which Potency is on record?
Its Potency is inconclusive: 5.62 µM [inhibitor, single point].

For `CCc1ccc(NC(=O)C2C3C=CC(C4CC34)C2C(=O)O)cc1` (configuration not stated), which Potency is on record?
The Potency was inconclusive: 3.55 µM [activator, single point].

With `COc1ccc(-c2nc(C#N)c(NC(C)c3ccccc3)o2)cc1OC` (configuration not stated) as the molecule, how does the Potency read?
The Potency was inconclusive: 2.82 µM [activator, partial curve].

Which Potency does the source give for `Cc1ccc(S(=O)(=O)Nc2ccccc2CNc2ccc(Br)cn2)cc1` here?
The Potency was inconclusive: 25.1 µM [inhibitor, single point].

For `CCc1c(C)sc2nc(C(C)C)nc(SCC(=O)N3CCc4ccccc4C3)c12`, which Potency is on record?
Its Potency is active: 3.55 µM.
